Source: patent EP0368624A2, “Method and composition for stabilizing and solubilizing latex reagents” (Biotrack, Inc., priority 1988, dated 1990)
For at least one compound, name, drawing or mass did not settle the structure.

Test: Recovery of activity of antibody-latex reagent after drying on plastic (turbidimetric agglutination rate vs liquid control)
Conditions: additive concentration 5 % in the aqueous latex suspension applied to the plastic
Description: An agglutinating polymer was made by covalent attachment of about nine molecules of a peptide antigen to polyaspartic acid (M=15,000). A latex reagent was made by adsorption of a monoclonal antibody (which binds to the peptide antigen) to small latex particles (85 nm diameter) by adsorption. […] The mixture was aspirated into a temperature controlled flow cell of a spectrophotometer with a 1 cm optical path length and rapidly heated to […]. The change of apparent absorbance at 540 nm was then recorded over 20s.
Liquid was removed by exposure to desiccant under a variety of conditions (flowing air, flowing dry N₂, or vacuum).
Additives were added to the latex suspension at the indicated concentrations prior to drying. Recovery is given in Table 2 as a percentage of the activity of a non-dried (liquid) control. […]

OC[C@H]1O[C@H](O[C@H]2[C@H](O)[C@@H](O)[C@H](O)O[C@@H]2CO)[C@H](O)[C@@H](O)[C@@H]1O [D-maltose]
Activity (%) Ref = Liq: 82%
